Assay results: article PMC11371216
The exact form of at least one protein or probe is not confirmed. For some of these results: No signal at the amounts used counts as a negative. For some of these results: At least one verdict was read from the data and is not stated in words by the source.

The chains behind the UniProt entries cited, without tags or fusion partners. Where a name states a change or a piece, a line headed by the entry shows the natural chain unless it says otherwise.
UniProt P26358: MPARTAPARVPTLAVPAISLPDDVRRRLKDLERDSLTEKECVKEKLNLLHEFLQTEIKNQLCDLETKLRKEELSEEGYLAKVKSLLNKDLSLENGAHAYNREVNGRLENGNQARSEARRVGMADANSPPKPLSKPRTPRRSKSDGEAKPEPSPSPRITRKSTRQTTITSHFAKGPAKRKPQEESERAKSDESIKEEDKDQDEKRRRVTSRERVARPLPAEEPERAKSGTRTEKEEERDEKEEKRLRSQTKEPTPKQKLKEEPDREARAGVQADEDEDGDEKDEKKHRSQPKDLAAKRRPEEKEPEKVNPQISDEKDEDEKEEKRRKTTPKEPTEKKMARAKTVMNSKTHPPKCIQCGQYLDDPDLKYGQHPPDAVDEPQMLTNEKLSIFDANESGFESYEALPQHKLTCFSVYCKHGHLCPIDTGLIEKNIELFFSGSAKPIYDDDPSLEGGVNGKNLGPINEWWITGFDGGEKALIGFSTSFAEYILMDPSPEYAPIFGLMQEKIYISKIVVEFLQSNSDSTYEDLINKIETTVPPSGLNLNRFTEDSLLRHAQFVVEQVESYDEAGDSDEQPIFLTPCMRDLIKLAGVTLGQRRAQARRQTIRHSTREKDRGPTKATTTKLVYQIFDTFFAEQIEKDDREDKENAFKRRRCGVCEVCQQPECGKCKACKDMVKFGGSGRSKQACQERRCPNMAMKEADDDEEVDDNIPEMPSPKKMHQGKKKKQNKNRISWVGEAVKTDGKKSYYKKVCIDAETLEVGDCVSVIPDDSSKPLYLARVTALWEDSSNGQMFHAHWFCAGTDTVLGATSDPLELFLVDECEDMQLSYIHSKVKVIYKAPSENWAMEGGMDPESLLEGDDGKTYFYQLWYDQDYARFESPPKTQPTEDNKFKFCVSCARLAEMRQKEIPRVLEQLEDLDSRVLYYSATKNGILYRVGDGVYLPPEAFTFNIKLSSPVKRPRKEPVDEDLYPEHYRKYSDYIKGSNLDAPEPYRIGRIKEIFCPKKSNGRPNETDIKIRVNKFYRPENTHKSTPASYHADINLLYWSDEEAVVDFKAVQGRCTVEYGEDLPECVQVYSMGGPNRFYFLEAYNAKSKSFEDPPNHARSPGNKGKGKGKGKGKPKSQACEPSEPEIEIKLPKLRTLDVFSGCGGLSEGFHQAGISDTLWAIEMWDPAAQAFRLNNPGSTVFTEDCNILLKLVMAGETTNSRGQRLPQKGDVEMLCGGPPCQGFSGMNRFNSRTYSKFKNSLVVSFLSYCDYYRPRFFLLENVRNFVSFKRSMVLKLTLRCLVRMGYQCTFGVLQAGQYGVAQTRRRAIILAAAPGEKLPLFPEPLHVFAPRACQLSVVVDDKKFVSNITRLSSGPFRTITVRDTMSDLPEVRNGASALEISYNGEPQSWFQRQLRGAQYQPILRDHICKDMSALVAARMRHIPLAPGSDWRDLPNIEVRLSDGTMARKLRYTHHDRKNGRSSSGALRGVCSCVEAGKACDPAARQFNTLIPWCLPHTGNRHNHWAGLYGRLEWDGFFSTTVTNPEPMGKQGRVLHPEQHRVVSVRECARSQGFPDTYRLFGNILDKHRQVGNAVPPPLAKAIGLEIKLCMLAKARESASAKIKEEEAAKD

Experiments:
[1] = biological target: DNMT1 (human) (UniProt P26358); experiment: EMSA; conditions: SAM 20-fold excess, no inhibitor; 5-methyl-dC at position 13 of strand 1; EMSA: 25 mM Tris-HCl pH 7.5, 40 mM NaCl, 20% glycerol, 1 mM DTT, 0.5 mM MgCl2, overnight at room temperature; recombinant protein; protein details: N-terminal Flag-6xHis-TEV site
[2] = tested on: DNMT1 + H3Ub2-peptide (H3-K18Ub/K23Ub analogue) H3:K18C,K23C, ubiquitin:G76C; experiment: cryo-EM; conditions: productive covalent complex; 5-methyl-dC at position 13 of strand 1; 5-fluoro-dC at position 13 of strand 2; covalent assay: 25 mM Tris-HCl pH 7.5, 20 mM KCl, 20% glycerol, 2 mM MgCl2, 37 C, 1 h; recombinant protein; protein details: N-terminal Flag-6xHis-TEV site
[3] = biological target: DNMT1 (human) (UniProt P26358); experiment: covalent complex on SDS-PAGE; conditions: no H3Ub2-peptide, no covalent complex (non-covalent binding not tested); 5-methyl-dC at position 13 of strand 1; 5-fluoro-dC at position 13 of strand 2; covalent assay: 25 mM Tris-HCl pH 7.5, 20 mM KCl, 20% glycerol, 2 mM MgCl2, 37 C, 1 h; recombinant protein; protein details: N-terminal Flag-6xHis-TEV site
[4] = tested on: DNMT1 + H3Ub2-peptide (H3-K18Ub/K23Ub analogue) H3:K18C,K23C, ubiquitin:G76C; experiment: covalent complex on SDS-PAGE; conditions: SAM 150-fold excess, 2 mM Mg2+, no inhibitor; 5-methyl-dC at position 13 of strand 1; 5-fluoro-dC at position 13 of strand 2; covalent assay: 25 mM Tris-HCl pH 7.5, 20 mM KCl, 20% glycerol, 2 mM MgCl2, 37 C, 1 h; recombinant protein; protein details: N-terminal Flag-6xHis-TEV site

Sequence | binding result [1] | binding result [2] | binding result [3] | binding result [4]
TGGAGTCGAGGCCGCCTGCGCAGGAC (double strand) [26 bp hemi-methylated DNA] | binds |  |  | 
TGGAGTCGAGGCCGCCTGCGCAGGAC (double strand) [26 bp 5FDNA (hemi-methylated, 5-fC target strand)] |  | binds | no binding | binds
